Data taken from PubChem BioAssay AID624291 (National Center for Advancing Translational Sciences (NCATS), 2012).
Screen size: about 350,000 compounds; about 220 (0.063%) were called active. Inconclusive results, whose numbers are uncertain, are shown with a selection of clear calls. Calls come from the whole dose curve; as a rule, active = well fitted activation curve with a large enough effect; inconclusive = small, poorly fitted or top-dose-only effect; inactive = no such curve, though single readings can be large or run the other way. A potency beside an inconclusive call is a rough fit, not a confirmed value.

Experiment: qHTS for Activators of Integrin-Mediated Alleviation for Muscular Dystrophy; note: nearly all actives have a fitted effect of over 60% in size;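 for activation: 100% = response of the positive control SU9516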
Conditions: alpha7betagal myoblasts, beta-gal FDG fluorescence, 48 h; activation: at 38.3 µM (top of the series)
Outline: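 alpha7betagal+/- myoblasts (passage 13, 250/well) treated 48 h at 37C with compounds at 1:260 dilution of DMSO stock. Lysed, then beta-galactosidase activity read as FDG fluorescence (ex 480/em 540) after 30 min, with pre-read for autofluorescence.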
Potency is the fitted concentration of half-maximal effect.

Compound | activation | Potency
CCCn1c(=O)c2ccccc2n2c(SCCOc3ccc(Cl)cc3)nnc12 | inactive: 14% | 
O=C(Cc1ccccc1F)NCC(c1ccco1)N1CCCCC1 (stereo not drawn) |  | inconclusive: 0.501 µM [activator, full curve, poor fit]
COc1ccccc1N1CCN(CC(=O)Nc2ccc3c(c2)OCCO3)CC1 |  | inconclusive: 2.51 µM [activator, single point]
O=C(O)/C=C/C(=O)Nc1ccc(NC(=O)c2ccccc2)c(Cl)c1 |  | inconclusive: 2.82 µM [activator, single point]
CC(NC(=O)c1cc2ccccc2oc1=O)c1ccc(O)cc1 (stereo not drawn) |  | inconclusive: 28.2 µM [activator, single point]
O=C(COc1ccc(F)cc1)Nc1cc(S(=O)(=O)N2CCCCC2)ccc1N1CCCCC1 | inactive: 13.1% | 
COc1ccc(C(=O)COC(=O)c2ccc3c(c2)NC(=O)CS3)c(OC)c1 |  | inconclusive: 14.1 µM [activator, single point]
c1ccc(CNc2nc(CN3CCOCC3)nc3scc(-c4ccccc4)c23)cc1 |  | inconclusive: 28.2 µM [activator, single point]
CC1CCCCC1NC(=S)NC(=O)c1ccccc1Br (stereo not drawn) | inactive: 0% | 
Cc1cc(NC(=O)c2ccccc2C)n(-c2cccc(F)c2)n1 |  | inconclusive: 3.16 µM [activator, partial curve, poor fit]
O=C(Cn1cnc2ccccc2c1=O)NCCC(=O)Nc1ccc2c(c1)OCO2 |  | inconclusive: 5.01 µM [activator, single point]
Nc1ccc(C(=O)Nc2ccc3nc(-c4ccncc4)[nH]c3c2)cc1 |  | inconclusive: 28.2 µM [activator, single point]
O=C(/C=C/Nc1ccc(Nc2ccccc2)cc1)c1cccs1 |  | inconclusive: 0.501 µM [activator, full curve, poor fit]
COc1ccc(OC)c(NC(=O)C2CCC(CNc3c(N4CCC(C)CC4)c(=O)c3=O)CC2)c1 (stereo not drawn) | inactive: -7.56% | 
COc1ccc(-n2ccn(CC(=O)Nc3ccc(OC)cc3OC)c(=O)c2=O)cc1 |  | inconclusive: 0.501 µM [activator, full curve, poor fit]
Cc1c(N=C2NN=C(c3ccc(Cl)cc3)CS2)c(=O)n(-c2ccccc2)n1C |  | inconclusive: 31.6 µM [activator, single point]
O=C(NN=C1CCCCCC1)NC1CCCCC1 |  | inconclusive: 5.01 µM [activator, single point]
Cc1[nH]n(-c2cccc(Cl)c2)c(=O)c1C=NCc1ccco1 |  | inconclusive: 28.2 µM [activator, single point]

Full records from above:
CC(NC(=O)c1cc2ccccc2oc1=O)c1ccc(O)cc1 (stereo not drawn) as listed: Potency: inconclusive: 28.2 µM [activator, single point]
O=C(O)/C=C/C(=O)Nc1ccc(NC(=O)c2ccccc2)c(Cl)c1 as listed: Potency: inconclusive: 2.82 µM [activator, single point]
